Results: patent publication US8466195B2, “Methods and compositions for treating complications of diabetes and vascular diseases using flavones” (Salk Institute for Biological Studies, priority 2009, dated 2013)

Test system: C57BL/6 control mice
Experiment: Metabolic parameters of wild type mice
Format: in vivo
Settings: fisetin 0.05% in diet, 24 weeks of age

SMILES: O=c1c(O)c(-c2ccc(O)c(O)c2)oc2cc(O)ccc12 [fisetin, 2-(3,4-dihydroxyphenyl)-3,7-dihydroxychromen-4-one]
- Blood Glucose: 73.0 ± 29
- HbA1c: 5.2 ± 0.4
- Weight: 32.8 ± 3.1
- Blood Glucose (listed as Fisetin): no effect
- HbA1c (listed as Fisetin): no effect
- Weight (listed as Fisetin): no effect
